Test results as given in the supplement of paper PMC6078165.
The reference is the same well before dosing, and untreated signal decays as well.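 Fibroblast labels denote human fibroblasts, mainly primary ones from uterus (C12385, HUF), lung (H6013), bone (Hs27A), adrenal (HADF) and skin (WS1), plus mammary HMF and breast cancer-associated Hs343T. Cancer cells are basal-like or mesenchymal-like triple-negative breast cancer lines. A hit is a response shift exceeding 3x replicate standard deviation. The tissue of the other fibroblasts is not given here.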

Tested on: Hs578T
Assay: relative JC-1 red fluorescence (viability) vs pre-drug, coculture with fibroblast (fraction); higher = more viable cancer cells
Experimental: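 JC-1 labelled TNBC cells cocultured 1:1 (1,500 cells each) with CellTrace Violet stained primary or stromal fibroblasts in 384-well plates in FluoroBrite medium, treated with one of 42 anticancer drugs at 0.1, 1, 10 or 100 uM. JC-1 red fluorescence (mitochondrial integrity in cancer cells only) was read by plate reader every 8 h for 72 h. Values are normalised to each well's pre-drug value. The stock of one drug was tenfold lower, so its dose labels may be too high.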

CCN(CC)CCNC(=O)c1c(C)[nH]c(/C=C2\C(=O)Nc3ccc(F)cc32)c1C [Sunitinib]
relative JC-1 red fluorescence
Settings | 8 h | 16 h | 24 h | 32 h | 40 h | 48 h | 56 h | 64 h | 72 h
0.1 µM | 0.8759 | 0.8033 | 0.77 | 0.737 | 0.696 | 0.661 | 0.649 | 0.613 | 0.606
1 µM | 0.879 | 0.796 | 0.754 | 0.718 | 0.667 | 0.625 | 0.6089 | 0.56854 | 0.539
10 µM | 0.982 | 0.557 | 0.438 | 0.381 | 0.333 | 0.293 | 0.263 | 0.233 | 0.223
100 µM | 0.458 | 0.372 | 0.373 | 0.383 | 0.353 | 0.328 | 0.323 | 0.296 | 0.277

relative JC-1 red fluorescence
Settings | 8 h | 16 h | 24 h | 32 h | 40 h | 48 h | 56 h | 64 h | 72 h
0.1 µM, coculture fibroblast: C12385 | 0.799 | 0.728 | 0.702 | 0.618 | 0.562 | 0.541 | 0.5153 | 0.52139 | 0.5226
0.1 µM, coculture fibroblast: H6013 | 0.819 | 0.7884 | 0.749 | 0.732 | 0.716 | 0.717 | 0.71 | 0.712 | 0.691
0.1 µM, coculture fibroblast: H6019 | 0.749 | 0.692 | 0.706 | 0.622 | 0.602 | 0.594 | 0.573 | 0.568 | 0.55
0.1 µM, coculture fibroblast: H6076 | 0.889 | 0.839 | 0.797 | 0.769 | 0.731 | 0.734 | 0.719 | 0.713 | 0.707
0.1 µM, coculture fibroblast: H6231 | 0.888 | 0.8207 | 0.758 | 0.713 | 0.649 | 0.626 | 0.587 | 0.57 | 0.565
0.1 µM, coculture fibroblast: HADF | 0.858 | 0.819 | 0.764 | 0.728 | 0.704 | 0.684 | 0.655 | 0.656 | 0.646
0.1 µM, coculture fibroblast: HCFa | 0.812 | 0.777 | 0.749 | 0.716 | 0.689 | 0.678 | 0.655 | 0.656 | 0.621
0.1 µM, coculture fibroblast: HCPF | 0.903 | 0.835 | 0.792 | 0.769 | 0.722 | 0.70312 | 0.7 | 0.674 | 0.661
0.1 µM, coculture fibroblast: HHSteC | 0.847 | 0.819 | 0.788 | 0.751 | 0.718 | 0.695 | 0.673 | 0.66 | 0.632
0.1 µM, coculture fibroblast: HMF | 0.835 | 0.799 | 0.7799 | 0.78 | 0.74 | 0.735 | 0.719 | 0.708 | 0.709
0.1 µM, coculture fibroblast: HPFa | 0.8927 | 0.841 | 0.801 | 0.758 | 0.731 | 0.715 | 0.685 | 0.674 | 0.648
0.1 µM, coculture fibroblast: HUF | 0.852 | 0.733 | 0.716 | 0.626 | 0.579 | 0.562 | 0.539 | 0.542 | 0.538
0.1 µM, coculture fibroblast: Hs27A | 0.85 | 0.794 | 0.754 | 0.72 | 0.666 | 0.655 | 0.625 | 0.623 | 0.579
0.1 µM, coculture fibroblast: Hs343T | 0.891 | 0.818 | 0.79 | 0.767 | 0.719 | 0.707 | 0.681 | 0.666 | 0.67
0.1 µM, coculture fibroblast: WS1 | 0.801 | 0.73 | 0.6985 | 0.6172 | 0.577 | 0.56 | 0.543 | 0.542 | 0.544
1 µM, coculture fibroblast: C12385 | 0.795 | 0.7124 | 0.685 | 0.6053 | 0.555 | 0.534 | 0.518 | 0.506 | 0.507
1 µM, coculture fibroblast: H6013 | 0.841 | 0.83 | 0.828 | 0.821 | 0.814 | 0.818 | 0.807 | 0.808 | 0.79
1 µM, coculture fibroblast: H6019 | 0.7614 | 0.697 | 0.673 | 0.587 | 0.546 | 0.519 | 0.496 | 0.477 | 0.446
1 µM, coculture fibroblast: H6076 | 0.899 | 0.856 | 0.824 | 0.801 | 0.769 | 0.773 | 0.753 | 0.737 | 0.729
1 µM, coculture fibroblast: H6231 | 0.914 | 0.889 | 0.842 | 0.79 | 0.732 | 0.701 | 0.664 | 0.64 | 0.625
1 µM, coculture fibroblast: HADF | 0.865 | 0.812 | 0.769 | 0.739 | 0.726 | 0.706 | 0.679 | 0.673 | 0.652
1 µM, coculture fibroblast: HCFa | 0.84 | 0.831 | 0.814 | 0.786 | 0.758 | 0.759 | 0.732 | 0.73 | 0.694
1 µM, coculture fibroblast: HCPF | 0.869 | 0.81 | 0.778 | 0.751 | 0.709 | 0.693 | 0.679 | 0.637 | 0.617
1 µM, coculture fibroblast: HHSteC | 0.839 | 0.797 | 0.767 | 0.73 | 0.699 | 0.676 | 0.66 | 0.64 | 0.611
1 µM, coculture fibroblast: HMF | 0.89 | 0.855 | 0.816 | 0.794 | 0.75 | 0.728 | 0.7 | 0.669 | 0.652
1 µM, coculture fibroblast: HPFa | 0.87 | 0.804 | 0.751 | 0.707 | 0.674 | 0.643 | 0.609 | 0.5902 | 0.5539
1 µM, coculture fibroblast: HUF | 0.828 | 0.7079 | 0.7124 | 0.6288 | 0.5907 | 0.561 | 0.54 | 0.537 | 0.534
1 µM, coculture fibroblast: Hs27A | 0.881 | 0.847 | 0.81 | 0.775 | 0.721 | 0.714 | 0.668 | 0.672 | 0.627
1 µM, coculture fibroblast: Hs343T | 0.864 | 0.784 | 0.7517 | 0.739 | 0.689 | 0.672 | 0.654 | 0.634 | 0.637
1 µM, coculture fibroblast: WS1 | 0.776 | 0.706 | 0.7024 | 0.63 | 0.586 | 0.576 | 0.5581 | 0.5528 | 0.552
10 µM, coculture fibroblast: C12385 | 0.776 | 0.655 | 0.662 | 0.553 | 0.49 | 0.441 | 0.392 | 0.366 | 0.343
10 µM, coculture fibroblast: H6013 | 0.891 | 0.758 | 0.713 | 0.658 | 0.53 | 0.436 | 0.37 | 0.333 | 0.2943
10 µM, coculture fibroblast: H6019 | 0.822 | 0.777 | 0.746 | 0.693 | 0.677 | 0.676 | 0.667 | 0.645 | 0.615
10 µM, coculture fibroblast: H6076 | 0.94 | 0.618 | 0.63 | 0.604 | 0.552 | 0.539 | 0.484 | 0.473 | 0.446
10 µM, coculture fibroblast: H6231 | 0.819 | 0.902 | 0.95 | 0.905 | 0.816 | 0.766 | 0.737 | 0.728 | 0.722
10 µM, coculture fibroblast: HADF | 0.95 | 0.671 | 0.545 | 0.464 | 0.415 | 0.3628 | 0.3276 | 0.302 | 0.271
10 µM, coculture fibroblast: HCFa | 0.915 | 0.841 | 0.764 | 0.692 | 0.589 | 0.541 | 0.499 | 0.427 | 0.361
10 µM, coculture fibroblast: HCPF | 0.96 | 0.732 | 0.624 | 0.519 | 0.416 | 0.3707 | 0.324 | 0.259 | 0.227
10 µM, coculture fibroblast: HHSteC | 0.871 | 0.707 | 0.63 | 0.486 | 0.388 | 0.324 | 0.268 | 0.219 | 0.185
10 µM, coculture fibroblast: HMF | 0.897 | 0.857 | 0.913 | 0.887 | 0.839 | 0.815 | 0.777 | 0.7584 | 0.7405
10 µM, coculture fibroblast: HPFa | 0.961 | 0.791 | 0.833 | 0.675 | 0.61 | 0.586 | 0.71 | 0.676 | 0.639
10 µM, coculture fibroblast: HUF | 0.8885 | 0.844 | 0.817 | 0.74 | 0.709 | 0.659 | 0.585 | 0.508 | 0.438
10 µM, coculture fibroblast: Hs27A | 0.95 | 0.796 | 0.871 | 0.932 | 0.863 | 0.922 | 0.741 | 0.637 | 0.504
10 µM, coculture fibroblast: Hs343T | 0.83273 | 0.658 | 0.582 | 0.575 | 0.544 | 0.51 | 0.444 | 0.334 | 0.274
10 µM, coculture fibroblast: WS1 | 0.767 | 0.72 | 0.697 | 0.643 | 0.59 | 0.54 | 0.465 | 0.423 | 0.347
100 µM, coculture fibroblast: C12385 | 0.471 | 0.243 | 0.241 | 0.188 | 0.164 | 0.159 | 0.137 | 0.121 | 0.114
100 µM, coculture fibroblast: H6013 | 0.301 | 0.255 | 0.241 | 0.226 | 0.21 | 0.21 | 0.184 | 0.172 | 0.151
100 µM, coculture fibroblast: H6019 | 0.366 | 0.26 | 0.282 | 0.221 | 0.21 | 0.212 | 0.203 | 0.189 | 0.178
100 µM, coculture fibroblast: H6076 | 0.417 | 0.355 | 0.34 | 0.341 | 0.3165 | 0.309 | 0.297 | 0.279 | 0.264
100 µM, coculture fibroblast: H6231 | 0.435 | 0.359 | 0.357 | 0.37 | 0.333 | 0.339 | 0.325 | 0.319 | 0.312
100 µM, coculture fibroblast: HADF | 0.4 | 0.364 | 0.352 | 0.333 | 0.313 | 0.313 | 0.283 | 0.268 | 0.241
100 µM, coculture fibroblast: HCFa | 0.433 | 0.362 | 0.339 | 0.33 | 0.312 | 0.316 | 0.296 | 0.277 | 0.243
100 µM, coculture fibroblast: HCPF | 0.451 | 0.357 | 0.349 | 0.357 | 0.314 | 0.307 | 0.305 | 0.272 | 0.253
100 µM, coculture fibroblast: HHSteC | 0.439 | 0.378 | 0.363 | 0.348 | 0.3206 | 0.312 | 0.293 | 0.278 | 0.244
100 µM, coculture fibroblast: HMF | 0.398 | 0.372 | 0.377 | 0.407 | 0.39 | 0.4 | 0.412 | 0.415 | 0.412
100 µM, coculture fibroblast: HPFa | 0.61 | 0.333 | 0.313 | 0.292 | 0.285 | 0.279 | 0.256 | 0.248 | 0.216
100 µM, coculture fibroblast: HUF | 0.648 | 0.359 | 0.337 | 0.27 | 0.242 | 0.234 | 0.204 | 0.188 | 0.177
100 µM, coculture fibroblast: Hs27A | 0.386 | 0.266 | 0.259 | 0.262 | 0.241 | 0.261 | 0.239 | 0.239 | 0.223
100 µM, coculture fibroblast: Hs343T | 0.348 | 0.301 | 0.306 | 0.316 | 0.294 | 0.297 | 0.29 | 0.292 | 0.297
100 µM, coculture fibroblast: WS1 | 0.344 | 0.309 | 0.278 | 0.213 | 0.186 | 0.194 | 0.174 | 0.162 | 0.155
